Measured data: PubChem BioAssay AID1508597 (Cure First, 2020)

Assay: 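Knock-downs altering ovarian cancer cell survival with or without PARP inhibitor rucaparib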 (primary screen)
System: human ovarian carcinoma lines grown from tumours: OCI-P5x (papillary serous) and OCI-C5x (clear cell)
Reagents: siRNA pool against human genes, 1.25 pmol siRNA per well
Time to read-out: 72 h or 96 h, depending on the cell culture
Challenge: rucaparib 20 µM (about IC30) or vehicle, present until read-out
Rucaparib or vehicle: Rucaparib
Cell line: OCI-P5x (serous)
Measurement: 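ATP luminescence measured at 72 or 96 h according to the culture, then normalised and expressed as percent viability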
Reading the numbers: viability, normalised: higher = more viable cells remaining
Active means: 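a well counts as a hit if its normalised viability is under 80 percent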
Meaning of the calls: active = viability under 80%; inactive = viability 80% or more
This is an unselected part of the about 2,100 reagents, in one setting of the screen. 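Calls flag viability under 80% in either arm, not effects specific to rucaparib; the reference for percent is not stated.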 Entries without a mark were called inactive. Not given: the 100% reference.

target gene | technical replicate | viability, normalised (%)
ITPKA | 1 | 67.5 (active)
ITPKA | 2 | 71 (active)
ITPKA | 3 | 55.1 (active)
GEN1 | 1 | 169
GEN1 | 2 | 169
GEN1 | 3 | 135
RAD51B | 1 | 86.6
RAD51B | 2 | 121
RAD51B | 3 | 109
TNKS | 1 | 97.6
TNKS | 2 | 108
TNKS | 3 | 127
NAP1L2 | 1 | 45.8 (active)
NAP1L2 | 2 | 49.4 (active)
NAP1L2 | 3 | 44.7 (active)
MAST2 | 1 | 94.5
MAST2 | 2 | 94.1
MAST2 | 3 | 88.6
RAD50 | 1 | 77.6 (active)
RAD50 | 2 | 91.5
RAD50 | 3 | 103
XAB2 | 1 | 53.1 (active)
XAB2 | 2 | 51.5 (active)
XAB2 | 3 | 48.9 (active)
XRCC5 | 1 | 80.3
XRCC5 | 2 | 75 (active)
XRCC5 | 3 | 78.7 (active)
FBXO10 | 1 | 56.8 (active)
FBXO10 | 2 | 57.1 (active)
FBXO10 | 3 | 64.4 (active)
ROS1 | 1 | 81.7
ROS1 | 2 | 101
ROS1 | 3 | 55.5 (active)
PDE5A | 1 | 51.9 (active)
PDE5A | 2 | 56.8 (active)
PDE5A | 3 | 56.5 (active)
SPAG11B | 1 | 75 (active)
SPAG11B | 2 | 74.9 (active)
SPAG11B | 3 | 52.7 (active)
TFAM | 1 | 66.7 (active)
TFAM | 2 | 77 (active)
TFAM | 3 | 66 (active)
PRC1 | 1 | 82.1
PRC1 | 2 | 59.5 (active)
PRC1 | 3 | 85
FLT3 | 1 | 76.3 (active)
FLT3 | 2 | 87.4
FLT3 | 3 | 61.3 (active)
CLDN9 | 1 | 66.3 (active)
CLDN9 | 2 | 74.4 (active)
CLDN9 | 3 | 73 (active)
DEK | 1 | 52.9 (active)
DEK | 2 | 57.2 (active)
DEK | 3 | 44.8 (active)
MRE11 | 1 | 88.9
MRE11 | 2 | 113
MRE11 | 3 | 81.7
